From publication doi:10.1101/2025.11.15.688632
The exact form of at least one protein or probe is not confirmed. For some assays here: Negatives hold for the conditions tested.

Tests used:
[1] = system: CREBΔKID; test: stopped-flow fluorescence; details: kon 1.5 ± 0.1 nM-1 s-1
[2] = system: CREB (pseudo wild-type); test: stopped-flow fluorescence
[3] = system: CREBΔQ2; test: stopped-flow fluorescence; details: kon 1.36 ± 0.07 nM-1 s-1
[4] = system: bZIP-FD (covalent forced dimer); test: stopped-flow fluorescence; details: kon 2.3 ± 0.08 nM-1 s-1 (main text 2.45 ± 0.08)
[5] = system: CREB-GS-KID; test: stopped-flow fluorescence; details: kon 1.46 ± 0.07 nM-1 s-1
[6] = system: bZIP; test: stopped-flow fluorescence
[7] = system: CREBΔQ1; test: stopped-flow fluorescence; details: kon 1.66 ± 0.06 nM-1 s-1
[8] = system: AlexaFluor488-CREBΔLZ; test: flow-induced dispersion analysis; details: mM DNA, Rh change explained by viscosity

## CCTGACGTCAGCCCCCTGACGTCAGG [CREh]
[1]
  binding result: binds
[2]; kon 1.2 ± 0.1 nM-1 s-1
  binding result: binds
[3]
  binding result: binds
[4]
  binding result: binds
[5]
  binding result: binds
[6]; kon 2.3 ± 0.3 nM-1 s-1
  binding result: binds
[7]
  binding result: binds

## CCTGACGTCATCGG (double strand) [CRElin (unlabelled)]
[8]
  binding result: no binding

## CCTGACGTCATCGG (double strand) [CRElin]
[2]; kon similar to CREh
  binding result: binds
[6]; kon similar to CREh
  binding result: binds

## GGCTAAAGCATTCT (double strand) [nCRE]
[8]
  binding result: no binding
